# According to PubChem BioAssay AID493014 (National Center for Advancing Translational Sciences (NCATS), 2011):
# Some of the results follow. The main result of the screen is listed elsewhere. These columns were measured beside it and carry no call. Most of these compounds were active or inconclusive in the main read-out, so they are no random draw. Potencies come from curve fits of mixed quality, noted in brackets.
# Assay: qHTS Assay to Find Inhibitors of Chronic Active B-Cell Receptor Signaling
# Conditions: ABC-DLBCL IkBa-CBG/CBR reporter, luminescence ratio (green luciferase fused to IkBa over red control in TMD8 lymphoma cells), 4 h
# In short: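 Doxycycline induced both beetle luciferases in TMD8 lymphoma cells; IKK-driven degradation limits the IkappaBalpha-fused green signal, while red luminescence normalises for cell number and nonspecific effects. Compounds tested up to 46 uM, 4 hrs.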
# [1] = measured here: CBR red luminescence, cell number
# [2] = measured here: IkBa-CBG green luminescence
Compound,AC50 [1],AC50 [2]
C=CCN1C2CCCC1CC(NC(=S)Nc1ccc(Cl)cc1)C2 (centres undefined),"11.2 µM [falling, partial curve]",–
CC(=O)NC1(c2nnnn2CCOC(=O)Nc2ccc(Cl)cc2)CCCC1,"4.47 µM [rising, partial curve, poor fit]",–
COc1ccc(C(=O)c2c3ccc([N+](=O)[O-])cc3[n+]([O-])n2CCCN)cc1,"16.4 µM [falling, single point]",–
CCOC(=O)N1CCN(Cc2nc3cc(NC(=O)C(C)C)ccc3n2CC)CC1,"6.31 µM [rising, single point]",–
Cc1ccc(NC(=S)Nc2ccccn2)c(C)c1,"8.91 µM [rising, partial curve, poor fit]",–
CCOCCCNC(=O)c1ccc(N(C)S(=O)(=O)c2ccc(OC)cc2)cc1,"23.1 µM [rising, single point]",–
CC1CCC2(CC1)NC(=O)N(NC(=O)c1ccc(OC(C)C)cc1)C2=O (centres undefined),"3.26 µM [falling, partial curve, poor fit]",–
Cc1ccc(C)c(/C=N/Nc2nc3ccccc3c(=O)n2O)c1,"14.1 µM [rising, partial curve, poor fit]",–
CCc1nc(N[C@@H](CC(C)C)C(=O)O)c2oc3ccccc3c2n1,"11.2 µM [falling, partial curve, poor fit]",–
C#CC(CC)(CC)NC(=O)c1ccc(Br)s1,"22.4 µM [rising, single point]",–
COc1ccc(-c2nnc(SCC(=O)c3ccc[nH]3)o2)cc1,"5.17 µM [falling, partial curve, poor fit]",–
Cc1cccc(N2CCN(C(=O)c3cccn4c(=O)c5c(C)c(C)sc5nc34)CC2)c1C,"29.1 µM [rising, single point]",–
O=C(Cc1ccccc1)NNC(=S)Nc1ccccc1,"10 µM [rising, single point]",–
Cc1cccc(OCC(=O)Nc2ccc3c(c2)nc(CN2CCCCC2)n3C)c1,"35.5 µM [falling, partial curve, poor fit]",–
O=C(CCl)N1N=C(c2cccs2)CC1c1ccco1 (centres undefined),"10 µM [falling, partial curve, poor fit]","8.91 µM [rising, partial curve, poor fit]"
COc1cccc([C@@H]2Oc3ccc(Br)cc3C(=O)[C@H]2OC(=O)NC2CCCC2)c1,"29.1 µM [falling, single point]",–
COC(=O)c1ccc2c(=O)n(Cc3ccc(C(=O)NC(C)C)cc3)c(=S)[nH]c2c1,"1.58 µM [falling, partial curve, poor fit]",–
O=C(CSCc1ccc(C(=O)O)cc1)Nc1ccccc1,"1.26 µM [rising, full curve]",–
CNc1nc(NCCOC23CC4CC(CC(C4)C2)C3)nc(OCC(F)(F)F)n1,"17.8 µM [rising, partial curve, poor fit]",–
Cc1ccc2cc(CN(CCCO)S(=O)(=O)c3cccc4nsnc34)c(=O)[nH]c2c1C,"12.6 µM [rising, partial curve, poor fit]",–
O=C(/C=C/c1ccncc1)c1ccc2c(c1)OCCO2,"14.1 µM [falling, partial curve, poor fit]","12.6 µM [rising, partial curve, poor fit]"

Compound,AC50 [1],AC50 [2]
O=C(Nc1nc2ccccc2[nH]1)C1CCC1,"11.2 µM [falling, partial curve]",–
NC1=NC(=O)/C(=C/c2ccsc2)S1,"20 µM [falling, single point]",–
C=CCNc1nc(Nc2ccc([N+](=O)[O-])cc2)nc(OC)n1,"11.2 µM [rising, partial curve, poor fit]",–
COc1ccc(C(=O)/C=C/c2ccccc2)c(OC)c1,"17.8 µM [falling, single point]",–
CCc1ccc(NC(=O)c2sccc2-n2cccc2)cc1,"20.6 µM [rising, single point]",–
Cc1ccccc1C(=O)NNc1ncnc2c1cnn2-c1cccc(Cl)c1,"35.5 µM [falling, single point]",–
O=C(N/N=C1\CCc2ccccc21)c1ccc(O)cc1,"0.794 µM [falling, full curve]",–
O=C(COc1ccccc1F)NC1CCN(Cc2ccccc2)CC1,"32.6 µM [rising, partial curve, poor fit]",–
C[C@@H](C(=O)Nc1nc(-c2ccccn2)cs1)N1C(=O)C2CCCCC2C1=O (some centres undefined),"1.46 µM [falling, partial curve, poor fit]",–
CCOC(=O)C1CCN(C(=O)c2cc3cc(Cl)ccc3[nH]2)CC1,"2.24 µM [falling, partial curve, poor fit]",–
COc1ccc(OC)c(-c2nc3c(C)n[nH]c(=O)c3[nH]2)c1,"0.517 µM [falling, full curve, poor fit]","0.58 µM [rising, full curve, poor fit]"
O=C(NC(NC(=S)Nc1ccccc1Cl)C(Cl)(Cl)Cl)c1cccc(Cl)c1 (centres undefined),"29.1 µM [falling, single point]","20.6 µM [rising, partial curve, poor fit]"
O=C(Nc1cccc(NC(=O)c2cccs2)c1)c1ccco1,"5.17 µM [falling, partial curve]",–
CCOc1ccc(NC(=O)NCc2ccco2)cc1,"8.91 µM [falling, partial curve, poor fit]",–
COC(=O)c1ccccc1NC(=O)CC(=O)Nc1ccccc1C(=O)OC,"0.447 µM [rising, full curve, poor fit]",–
COc1ccc(S(=O)(=O)NC2CCCCC2)c(C)c1C,"0.82 µM [falling, partial curve, poor fit]",–
Cc1ccc(CNC(=O)Cn2cccc2)cc1,"5.62 µM [falling, single point]",–
CN1CCN(C(c2ccc(C(F)(F)F)cc2)c2ccc3cccnc3c2O)CC1 (centres undefined),"35.5 µM [falling, single point]",–
O=C(NCc1ccc2c(c1)OCO2)C1CCCCC1,"11.2 µM [rising, partial curve, poor fit]",–
COc1ccc(NC(=S)NNC(=O)Cn2nc([N+](=O)[O-])cc2C)cc1,"22.4 µM [falling, single point]","35.5 µM [rising, partial curve, poor fit]"
CN(Cc1cc(=O)[nH]c2ccccc12)C(=O)c1ccccc1,"2.24 µM [falling, full curve]",–

# Rewritten with tabs: five of the compounds above
Compound	AC50 [1]	AC50 [2]
Cc1ccc2cc(CN(CCCO)S(=O)(=O)c3cccc4nsnc34)c(=O)[nH]c2c1C	12.6 µM [rising, partial curve, poor fit]	–
O=C(/C=C/c1ccncc1)c1ccc2c(c1)OCCO2	14.1 µM [falling, partial curve, poor fit]	12.6 µM [rising, partial curve, poor fit]
O=C(Nc1nc2ccccc2[nH]1)C1CCC1	11.2 µM [falling, partial curve]	–
NC1=NC(=O)/C(=C/c2ccsc2)S1	20 µM [falling, single point]	–
C=CCNc1nc(Nc2ccc([N+](=O)[O-])cc2)nc(OC)n1	11.2 µM [rising, partial curve, poor fit]	–

# (next part)

Compound,AC50 [1],AC50 [2]
Cc1ccc(S(=O)(=O)Nc2ccccc2CNc2ncc(Br)cc2Br)cc1,"11.6 µM [falling, partial curve, poor fit]",–
CCN(CC)C(=O)CC(c1ccc(OC)cc1)c1c(OC)cc(OC)c2ccc(=O)oc12 (centres undefined),"15.8 µM [rising, partial curve, poor fit]",–
Cc1ccc(OCC(O)CN2C(=O)NC(C)(C)C2=O)c(C)c1 (centres undefined),–,"20 µM [falling, single point]"
CCCCc1nn(-c2cc(Cl)ccc2OC)c2c1C(=O)CCC2,"32.6 µM [falling, single point]",–
COc1ccccc1NC(=O)Nc1nc(CC(=O)Nc2cc(F)ccc2F)cs1,"16.4 µM [falling, single point]",–
CC(=O)N1CCC(C(=O)Nc2nc(-c3ccccc3)ns2)CC1,"16.4 µM [falling, partial curve, poor fit]","3.66 µM [rising, full curve]"
CCS(=O)(=O)c1ccc2oc(Nc3ccc(OC)cc3)nc2c1,"3.16 µM [rising, full curve, poor fit]",–
Cc1ccc2nc(NC(=O)CSc3ncnc4c3oc3ccccc34)sc2c1,"20.6 µM [falling, partial curve]",–
COc1ccc(N2CCN(C(=O)c3c(-c4ccccc4)noc3C)CC2)cc1,"6.51 µM [falling, single point]",–
COc1ccccc1N(CC(=O)N/N=C/c1c(O)ccc2ccccc12)S(C)(=O)=O,"11.6 µM [falling, partial curve]",–
Cc1c(Cl)cccc1NC(=O)Nn1cnnc1,"35.5 µM [falling, single point]",–
Cc1nccc(-c2cccc(NC(=O)c3ccccc3Cl)c2)n1,"5.62 µM [falling, single point]",–
CCOC(=O)c1oc2ccccc2c1N,"35.5 µM [rising, single point]",–
O=C(c1cc(Cl)ccc1Cl)N1CCN(c2ccccn2)CC1,"7.31 µM [falling, partial curve, poor fit]",–
Fc1ccc2[nH]c3c(N4CCN(c5ccccc5)CC4)ncnc3c2c1,"0.82 µM [falling, full curve, poor fit]",–
Cc1ccc(C(=O)N/C(=C\c2cccs2)C(=O)N2CCCCCC2)cc1,"3.55 µM [rising, partial curve, poor fit]",–
O=C(CSc1nc2ccccc2s1)NCCOc1ccccc1,"8.2 µM [rising, partial curve]",–
Cc1cccc(OCC(=O)N2CCN(c3nnc(-c4ccccc4)c4ccccc34)CC2)c1,"3.98 µM [falling, full curve]",–
O=C(Nc1cccnc1)c1cccc(-c2cc3ccccc3oc2=O)c1,"0.794 µM [rising, full curve, poor fit]",–
Cc1onc(-c2c(F)cccc2Cl)c1C(=O)OCC(=O)NC1CC1,"12.6 µM [rising, partial curve]",–
CCc1nc(N)c(C#N)c(-c2ccncc2)c1C,"20 µM [falling, partial curve, poor fit]",–
